This experiment addresses T1, scavenger receptor A (human (endogenous in THP-1)) (UniProt P21757).
T1 sequence: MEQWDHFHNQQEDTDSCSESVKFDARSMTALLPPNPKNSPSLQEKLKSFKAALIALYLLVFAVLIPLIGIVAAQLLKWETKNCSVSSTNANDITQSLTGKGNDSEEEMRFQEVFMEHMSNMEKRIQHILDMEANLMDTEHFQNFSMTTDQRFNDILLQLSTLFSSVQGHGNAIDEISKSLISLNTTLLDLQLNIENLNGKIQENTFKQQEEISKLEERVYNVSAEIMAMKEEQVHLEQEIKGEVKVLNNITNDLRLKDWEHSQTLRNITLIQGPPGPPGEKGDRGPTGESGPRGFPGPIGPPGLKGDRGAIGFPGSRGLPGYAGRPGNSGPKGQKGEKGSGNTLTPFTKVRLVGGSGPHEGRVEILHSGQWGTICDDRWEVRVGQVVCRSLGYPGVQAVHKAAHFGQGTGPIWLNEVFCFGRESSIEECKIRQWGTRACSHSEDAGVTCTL
Put plainly: co-IP; THP-1 cell lysate in RIPA buffer, protein A/G agarose, 4 °C overnight; blot with anti-wnt1 or anti-SRA; cells with or without LPS; the methods name anti-p65 as the precipitating antibody.

These are yes or no findings as the source states them, for the method shown. In cells and extracts the contact can be indirect. Some binding calls cover weakened binding; strength is not graded here.

B1: wnt1 (ligand, UniProt P04628 28-370)
chain: ANSSGRWWGIVNVASSTNLLTDSKSLQLVLEPSLQLLSRKQRRLIRQNPGILHSVSGGLQSAVRECKWQFRNRRWNCPTAPGPHLFGKIVNRGCRETAFIFAITSAGVTHSVARSCSEGSIESCTCDYRRRGPGGPDWHWGGCSDNIDFGRLFGREFVDSGEKGRDLRFLMNLHNNEAGRTTVFSEMRQECKCHGMSGSCTVRTCWMRLPTLRAVGDVLRDRFDGASRVLYGNRGSNRASRAELLRLEPEDPAHKPPSPHDLVYFEKSPNFCTYSGRLGTAGTAGRACNSSSPALDGCELLCCGRGHRTRTQRVTERCNCTFHWCCHVSCRNCTHTRVLHECL
Take B1: the binding result is recorded as “binds”.

For the origin of these results see PMC4495710.
